Results are given in words; binding and its absence hold for the method and conditions named. Binding seen in cells or lysates may run through a third protein. Some results given as binding are weak or reduced against the parent protein; the word gives no strength.
Legend:
Flag-VPS34 [1] = target: Flag-VPS34 (UniProt Q8NEB9); assay: in vitro pull-down, Flag-VPS34 on anti-Flag M2 beads with purified HA-UBE3C, Western blot (FIG. 3B)
Flag-VPS34 [2] = target: Flag-VPS34 (UniProt Q8NEB9); assay: in vitro pull-down, Western blot (FIG. 3B)

Amino acid sequences for entries named in this document (tags omitted).
UniProt Q8NEB9: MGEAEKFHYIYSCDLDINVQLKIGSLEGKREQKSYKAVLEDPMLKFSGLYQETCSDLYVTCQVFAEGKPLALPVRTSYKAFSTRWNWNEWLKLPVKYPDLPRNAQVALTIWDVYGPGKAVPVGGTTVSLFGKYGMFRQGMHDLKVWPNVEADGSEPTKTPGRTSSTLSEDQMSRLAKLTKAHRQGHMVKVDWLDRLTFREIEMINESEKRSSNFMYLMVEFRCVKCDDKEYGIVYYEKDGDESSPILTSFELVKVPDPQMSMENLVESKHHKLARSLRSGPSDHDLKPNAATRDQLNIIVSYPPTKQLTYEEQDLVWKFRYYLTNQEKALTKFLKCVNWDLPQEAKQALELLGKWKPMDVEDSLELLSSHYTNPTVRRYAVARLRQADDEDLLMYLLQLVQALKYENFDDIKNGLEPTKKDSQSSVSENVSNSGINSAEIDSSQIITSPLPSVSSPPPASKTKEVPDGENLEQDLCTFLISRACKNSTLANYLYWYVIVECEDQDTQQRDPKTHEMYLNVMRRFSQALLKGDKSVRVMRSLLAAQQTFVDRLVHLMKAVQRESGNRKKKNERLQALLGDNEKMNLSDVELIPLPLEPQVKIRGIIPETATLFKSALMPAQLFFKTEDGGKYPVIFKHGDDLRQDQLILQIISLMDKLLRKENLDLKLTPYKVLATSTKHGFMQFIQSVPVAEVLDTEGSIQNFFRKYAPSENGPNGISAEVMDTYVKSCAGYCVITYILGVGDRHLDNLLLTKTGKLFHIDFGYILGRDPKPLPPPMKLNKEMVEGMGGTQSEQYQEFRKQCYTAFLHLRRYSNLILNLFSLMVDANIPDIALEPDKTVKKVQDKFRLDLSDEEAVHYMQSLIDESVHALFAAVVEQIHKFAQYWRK
UniProt Q15386: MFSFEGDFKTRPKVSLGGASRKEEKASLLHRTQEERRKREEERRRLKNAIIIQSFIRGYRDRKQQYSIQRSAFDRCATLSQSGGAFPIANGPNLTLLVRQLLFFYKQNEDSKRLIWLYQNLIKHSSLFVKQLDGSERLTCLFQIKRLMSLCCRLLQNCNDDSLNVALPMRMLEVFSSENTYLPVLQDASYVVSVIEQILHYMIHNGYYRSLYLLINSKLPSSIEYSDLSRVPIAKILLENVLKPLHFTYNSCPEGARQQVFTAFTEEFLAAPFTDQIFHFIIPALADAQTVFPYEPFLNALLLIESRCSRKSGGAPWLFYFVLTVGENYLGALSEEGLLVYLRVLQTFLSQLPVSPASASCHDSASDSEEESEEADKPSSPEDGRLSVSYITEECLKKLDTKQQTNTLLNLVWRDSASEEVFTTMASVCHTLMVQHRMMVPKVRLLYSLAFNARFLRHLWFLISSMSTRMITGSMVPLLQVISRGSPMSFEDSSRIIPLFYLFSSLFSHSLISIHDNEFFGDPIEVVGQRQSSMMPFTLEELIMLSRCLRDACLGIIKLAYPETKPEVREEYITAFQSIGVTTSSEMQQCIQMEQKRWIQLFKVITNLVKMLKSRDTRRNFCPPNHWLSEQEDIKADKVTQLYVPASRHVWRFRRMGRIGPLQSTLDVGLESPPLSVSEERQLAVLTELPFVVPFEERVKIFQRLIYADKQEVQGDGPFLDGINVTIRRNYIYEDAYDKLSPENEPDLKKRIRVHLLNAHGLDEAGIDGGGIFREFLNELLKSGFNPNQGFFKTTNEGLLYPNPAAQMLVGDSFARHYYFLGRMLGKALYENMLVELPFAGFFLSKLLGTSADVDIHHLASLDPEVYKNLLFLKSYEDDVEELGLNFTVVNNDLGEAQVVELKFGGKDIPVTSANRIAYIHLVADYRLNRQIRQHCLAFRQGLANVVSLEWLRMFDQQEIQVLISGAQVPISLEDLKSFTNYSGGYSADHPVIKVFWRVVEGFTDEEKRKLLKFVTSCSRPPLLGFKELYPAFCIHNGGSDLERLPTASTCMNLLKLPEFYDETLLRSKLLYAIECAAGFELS

- binding (Flag-VPS34 [1]): binds
- binding (Flag-VPS34 [2]): binds
Substance: HA-UBE3C (from UniProt Q15386 1-1083) (enzyme)

Reference: patent US20220175895A1
